{"sequences": {"note": "Protein sequences, listed by entry. Tags and fused reporters are not part of them. Lines headed by an entry give the natural chain unless they say otherwise; changes in a name come on top.", "UniProt O14980": "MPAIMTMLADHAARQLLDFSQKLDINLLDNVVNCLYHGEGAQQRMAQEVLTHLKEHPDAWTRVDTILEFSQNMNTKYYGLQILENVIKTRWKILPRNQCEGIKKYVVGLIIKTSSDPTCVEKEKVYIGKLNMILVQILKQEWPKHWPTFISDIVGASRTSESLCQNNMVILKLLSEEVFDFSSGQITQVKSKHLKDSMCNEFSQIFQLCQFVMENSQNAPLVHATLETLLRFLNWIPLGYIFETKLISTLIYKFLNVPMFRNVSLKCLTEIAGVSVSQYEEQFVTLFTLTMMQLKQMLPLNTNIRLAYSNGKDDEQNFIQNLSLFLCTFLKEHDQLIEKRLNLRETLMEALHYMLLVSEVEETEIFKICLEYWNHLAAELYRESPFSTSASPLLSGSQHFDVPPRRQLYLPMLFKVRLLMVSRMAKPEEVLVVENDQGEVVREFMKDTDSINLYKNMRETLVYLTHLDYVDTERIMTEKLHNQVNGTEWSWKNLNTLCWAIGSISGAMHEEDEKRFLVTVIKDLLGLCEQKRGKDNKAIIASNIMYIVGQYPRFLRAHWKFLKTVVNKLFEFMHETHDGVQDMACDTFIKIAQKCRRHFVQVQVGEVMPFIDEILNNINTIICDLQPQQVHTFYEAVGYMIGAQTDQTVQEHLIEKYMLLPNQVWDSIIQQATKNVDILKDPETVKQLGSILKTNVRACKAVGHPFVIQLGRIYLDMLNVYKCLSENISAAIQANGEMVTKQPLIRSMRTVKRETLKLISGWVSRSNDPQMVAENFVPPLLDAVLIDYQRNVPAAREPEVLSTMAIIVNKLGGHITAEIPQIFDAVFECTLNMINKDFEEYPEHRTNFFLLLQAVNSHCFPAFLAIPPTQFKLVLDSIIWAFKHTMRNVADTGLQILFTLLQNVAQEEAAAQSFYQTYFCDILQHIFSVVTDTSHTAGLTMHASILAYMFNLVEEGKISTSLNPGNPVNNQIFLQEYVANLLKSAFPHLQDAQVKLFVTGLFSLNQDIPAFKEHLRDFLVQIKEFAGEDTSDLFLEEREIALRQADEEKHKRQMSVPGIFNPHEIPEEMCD", "UniProt Q92598": "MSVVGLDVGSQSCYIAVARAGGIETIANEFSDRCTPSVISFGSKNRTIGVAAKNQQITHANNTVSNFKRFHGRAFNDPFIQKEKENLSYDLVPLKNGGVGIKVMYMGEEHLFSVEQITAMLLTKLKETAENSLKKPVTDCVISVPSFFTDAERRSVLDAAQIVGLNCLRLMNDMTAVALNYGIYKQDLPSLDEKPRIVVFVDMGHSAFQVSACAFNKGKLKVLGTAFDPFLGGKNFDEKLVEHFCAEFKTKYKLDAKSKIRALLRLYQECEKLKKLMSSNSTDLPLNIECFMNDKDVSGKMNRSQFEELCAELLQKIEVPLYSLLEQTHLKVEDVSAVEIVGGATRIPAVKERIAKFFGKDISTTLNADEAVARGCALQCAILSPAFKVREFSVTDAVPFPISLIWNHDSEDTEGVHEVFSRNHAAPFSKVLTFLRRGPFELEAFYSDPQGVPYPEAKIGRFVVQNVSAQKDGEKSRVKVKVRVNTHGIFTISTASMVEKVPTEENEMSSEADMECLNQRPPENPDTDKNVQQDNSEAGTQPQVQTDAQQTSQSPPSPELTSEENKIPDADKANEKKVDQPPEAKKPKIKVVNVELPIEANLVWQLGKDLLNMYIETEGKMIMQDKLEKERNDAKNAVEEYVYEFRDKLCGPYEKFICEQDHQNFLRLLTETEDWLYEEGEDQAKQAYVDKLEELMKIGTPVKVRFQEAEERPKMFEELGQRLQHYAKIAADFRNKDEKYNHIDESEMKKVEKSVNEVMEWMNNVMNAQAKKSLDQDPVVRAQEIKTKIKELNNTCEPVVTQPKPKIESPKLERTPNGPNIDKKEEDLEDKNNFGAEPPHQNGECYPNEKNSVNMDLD"}, "source": "paper PMC11110392", "about": "“A first-in-class inhibitor of HSP110 to potentiate XPO1-targeted therapy in primary mediastinal B-cell lymphoma and classical Hodgkin lymphoma” (Journal of Experimental & Clinical Cancer Research : CR, 2024)", "key": {"XPO1 E571K-mCherry": {"molecular_target": "XPO1 E571K-mCherry (UniProt O14980)", "assay": "co-IP; IP of mCherry from HEK293S6 cells transfected with HSP110-GFP and XPO1 WT-mCherry or XPO1 E571K-mCherry; blots with anti-GFP and anti-mCherry; unrelated antibody as IP control"}, "XPO1wt-mCherry": {"molecular_target": "XPO1wt-mCherry (UniProt O14980)", "assay": "co-IP; IP of mCherry from HEK293S6 cells transfected with HSP110-GFP and XPO1 WT-mCherry or XPO1 E571K-mCherry; blots with anti-GFP and anti-mCherry; unrelated antibody as IP control"}}, "note": "Results are given in words; binding and its absence hold for the method and conditions named. Binding seen in cells or lysates may run through a third protein. Some entries that bind do so weakly or less than the wild type.", "data": [{"substance": "HSP110-GFP (from UniProt Q92598 1-858)", "values": [{"measurement": "binding", "setting": "XPO1 E571K-mCherry", "result": "binds"}, {"measurement": "binding", "setting": "XPO1wt-mCherry", "result": "binds"}]}]}
